Experimental data published in PubChem BioAssay AID743255 (National Center for Advancing Translational Sciences (NCATS), 2014).
Among all 390,000 compounds or so, about 910 (0.23%) were called active. The shares of active, inactive and inconclusive entries below differ from those in the screen. The call rests on the fitted dose curve; in most records, active means well fitted inhibition curve with a large enough effect; inconclusive means small, poorly fitted or top-dose-only effect; inactive means no such curve, though single readings can be large or run the other way. Potencies beside an inconclusive call are fits to weak or partial responses and may not hold up.

Chains of the proteins cited; added tags and fusions are not shown. Lines headed by an entry give the natural chain unless they say otherwise; changes in a name come on top.
UniProt O94782: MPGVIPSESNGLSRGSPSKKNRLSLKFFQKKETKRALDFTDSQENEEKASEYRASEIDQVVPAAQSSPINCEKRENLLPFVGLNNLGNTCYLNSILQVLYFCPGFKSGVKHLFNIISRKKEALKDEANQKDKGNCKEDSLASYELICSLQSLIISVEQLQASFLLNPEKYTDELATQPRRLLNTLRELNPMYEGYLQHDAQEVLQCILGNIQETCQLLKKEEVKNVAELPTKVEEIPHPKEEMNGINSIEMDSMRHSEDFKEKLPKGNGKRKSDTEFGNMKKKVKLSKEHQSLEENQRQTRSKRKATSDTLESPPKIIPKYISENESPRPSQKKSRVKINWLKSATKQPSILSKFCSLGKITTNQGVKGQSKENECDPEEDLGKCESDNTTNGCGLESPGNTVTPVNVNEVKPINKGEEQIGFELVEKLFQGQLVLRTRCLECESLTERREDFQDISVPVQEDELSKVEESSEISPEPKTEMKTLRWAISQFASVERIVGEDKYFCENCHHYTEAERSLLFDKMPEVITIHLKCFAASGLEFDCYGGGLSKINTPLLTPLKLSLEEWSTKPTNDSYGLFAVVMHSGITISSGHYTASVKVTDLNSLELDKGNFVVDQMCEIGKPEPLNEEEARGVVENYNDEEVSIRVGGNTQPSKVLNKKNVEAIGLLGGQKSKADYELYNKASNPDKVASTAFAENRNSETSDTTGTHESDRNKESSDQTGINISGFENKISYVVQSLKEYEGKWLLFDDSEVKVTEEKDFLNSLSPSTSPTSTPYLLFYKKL

What follows are molecules tested against Ubiquitin carboxyl-terminal hydrolase 1 (Homo sapiens) (UniProt O94782) (assay: Inhibitors of USP1/UAF1: Primary Screen). Details: recombinant USP1/UAF1, Ub-Rhodamine cleavage fluorescence; activity change, negative = inhibition: at 57.1 µM (top of the series).
Outline: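 USP1/UAF1 complex at 1 nM was preincubated with compound for 15 min at room temperature, then Ub-Rho substrate (150nM final) was added. Fluorescence (480/540 nm) was read kinetically, 6 reads every 60 seconds.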
Further: nearly all actives have a fitted effect of over 60% in size.
On the % scale 0 is the no-effect control and ±100 the full control effect; potency means the concentration at half of the fitted maximal effect.

Potency, active:
CCCCn1c(NS(=O)(=O)c2ccc(C)cc2)c(S(=O)(=O)c2ccccc2)c2nc3ccccc3nc21 28.2 µM
CC1CCN(Cc2c(O)ccc3c2O/C(=C\c2ccco2)C3=O)CC1 31.6 µM
Nc1c(N2CCCC2)cc(Cl)c2nonc12 15.8 µM
O=C1S/C(=C/c2ccc(N3CCOCC3)o2)C(=O)N1Cc1ccc(F)cc1 14.1 µM

Potency, inconclusive:
CCOC(=O)c1cccc(NC(=O)C(CC(C)C)N2Cc3ccccc3C2=O)c1 (centres undefined) 17.8 µM [inhibitor, partial curve]
CCN(CC(=O)Nc1ccc(Br)cc1)C(=O)Cc1cccc(F)c1 35.5 µM [inhibitor, single point]
Cc1ccc(-n2nc3c(c2NC(=O)CC(C)C)CS(=O)C3)cc1 (centres undefined) 0.398 µM [inhibitor, full curve]
COc1ccc2oc(=O)c(C(=O)NCCc3c(C)[nH]c4c(Cl)cccc34)cc2c1 44.7 µM [inhibitor, partial curve]
Cn1ccc2cc(S(=O)(=O)N3CCCN(C(=O)Nc4ccccc4Br)CC3)ccc21 35.5 µM [inhibitor, single point]
c1ccc(CNc2nc(-c3cccs3)nc3ccccc23)nc1 4.47 µM [inhibitor, single point]
COc1ccccc1Nc1nn2c(=O)c3ccc(C(=O)NCCCOC(C)C)cc3nc2s1 2.24 µM [inhibitor, full curve, poor fit]
CCOc1ccc(CCNC(=O)CCCn2nc(C)c3sc4ccccc4c3c2=O)cc1OCC 56.2 µM [inhibitor, partial curve, poor fit]
COc1ccc(/C=N/Nc2nncn2N)cc1Br 31.6 µM [inhibitor, single point]
S=c1[nH]nc(CSCc2ccccc2Cl)n1C1CCCCC1 31.6 µM [inhibitor, single point]
CCNC(=O)c1cnc2sc(N3CCCCCC3)nn2c1=O 0.708 µM [inhibitor, full curve, poor fit]
COCO/C=C(\NC(C)=O)c1ccccc1 89.1 µM [inhibitor, partial curve, poor fit]
COc1cc(NC(=O)CSc2nc3[nH]ncc3c(=O)n2-c2ccccc2)cc(OC)c1OC 50.1 µM [inhibitor, partial curve, poor fit]
COc1ccc([C@H]2C[C@@H](n3cc(COC(=O)c4ccccc4)nn3)[C@H](O)CN2C(=O)C2CCCCC2)cc1 0.355 µM [inhibitor, full curve]
Cc1ccc(NC(=O)c2sccc2C)cc1S(=O)(=O)N(C)C 0.282 µM [inhibitor, full curve, poor fit]
COc1ccc(C2=NC(C)(C)N(CC(=O)Nc3cccc(C)c3)C2=O)cc1 10 µM [inhibitor, partial curve]
COc1cccc(/C=N/Nc2ccc(S(=O)(=O)Nc3ccccc3C(=O)O)cc2[N+](=O)[O-])c1O 39.8 µM [inhibitor, partial curve]
Cc1c(Cl)cccc1NS(=O)(=O)c1ccc2c(c1)C1C=CCC1C(c1ccc(C(=O)O)cc1)N2 (centres undefined) 39.8 µM [inhibitor, partial curve, poor fit]
CC(C)(C)OC(=O)CNC(=O)c1[nH]cnc1C(=O)NCCCCCN 10 µM [inhibitor, partial curve, poor fit]
CCc1ccc(OCC(=O)N/N=C(\C)c2ccc(OC(F)F)cc2)cc1 8.91 µM [inhibitor, single point]
O=C(c1cccn1-c1nnc(N2CCCC2)s1)N1CCN(c2ccc(Cl)cc2)CC1 8.91 µM [inhibitor, partial curve]
COC(=O)C1=C(C(=O)OC)[N+]2=C3N(C(=O)NC2(C)C)[C@H](CO)C[C@@]32c3ccccc3N(Cc3ccccc3)[C@@H]12 35.5 µM [inhibitor, partial curve, poor fit]
COc1ccc(NC(=O)c2oc3ccc(S(=O)(=O)N4CCOCC4)cc3c2C)cc1 3.98 µM [inhibitor, partial curve]
C/C(CCN1CCc2nc(-c3ccccc3)c(-c3ccccc3)cc2C1)=N\OC[C@@H](C)[C@H](OCc1ccccc1)C(C)C 35.5 µM [inhibitor, partial curve, poor fit]
COc1ccc(-c2nnc3ccc(SCC(=O)N4CCCCC4)nn23)cc1OC 50.1 µM [inhibitor, single point]
O=C(Nc1cccc([N+](=O)[O-])c1)c1ccc2c(c1)C(=O)N(c1ccccn1)C2=O 7.08 µM [inhibitor, partial curve]
O=C(COC(=O)CNC(=O)c1ccccc1F)NCCNC(=O)COC(=O)CNC(=O)c1ccccc1F 5.01 µM [inhibitor, full curve, poor fit]
CCOC(=O)N1CCC(N2C(=O)c3cc(C(=O)NC4CCCCC4)ccc3C2O)CC1 (centres undefined) 0.891 µM [inhibitor, full curve, poor fit]
COc1ccccc1/C=C1/SC(=S)N(CCC(=O)Nc2cccnc2)C1=O 44.7 µM [inhibitor, partial curve, poor fit]
Cc1cc(C)n(-c2ccc(NC(=O)C3CCCCN3C(=O)c3cc(C)oc3C)cc2)n1 (centres undefined) 44.7 µM [inhibitor, partial curve, poor fit]
CCCCc1c(C)[nH]c(C(=O)OCC)c1C 4.47 µM [inhibitor, full curve, poor fit]
O=C(CSc1nnc(CNc2ccccc2)o1)c1ccc2c(c1)OCCO2 31.6 µM [inhibitor, partial curve, poor fit]
CCCCC1C(=O)NN(c2ccccc2)C1=O (centres undefined) 7.08 µM [inhibitor, single point]
Cc1nc(CS(=O)(=O)c2ccc(Cl)cc2)sc1C(=O)O 0.794 µM [inhibitor, full curve]
N#C/C(=C/c1ccc2c(c1)OCO2)C(=O)NCCc1c[nH]c2ccccc12 31.6 µM [inhibitor, partial curve]
COc1ccc(Cn2nnnc2C(c2cc3ccc(OC)cc3[nH]c2=O)N2CCC(C)CC2)cc1 (centres undefined) 10 µM [inhibitor, partial curve, poor fit]
CN(Cc1ccccc1)C(=O)c1nc(-c2ccc(Cl)cc2)n2c1CCCCC2 17.8 µM [inhibitor, partial curve, poor fit]
CCn1ncc(Br)c1C(=O)Nc1sc2c(c1C(=O)OC)CCC2 5.01 µM [inhibitor, partial curve]
C/C(Sc1nnc(Cc2ccccc2)o1)=C(\O)c1ccccc1 25.1 µM [inhibitor, partial curve, poor fit]
CCOC(=O)c1ccccc1NC(=O)COC(=O)C1CCN(S(=O)(=O)c2ccccc2C(=O)OC)CC1 6.31 µM [inhibitor, full curve]
CC(C)[C@H](CO)N(Cc1cccc(F)c1)c1nc(Nc2cccc(Cl)c2)c2ncn(C(C)C)c2n1 15.8 µM [inhibitor, partial curve]
CN(C)c1ccc(Cl)c(NC(N)=S)c1 0.282 µM [inhibitor, full curve, poor fit]
COc1ccc(C(=O)Nc2ccc(Cl)cc2C(=O)NCCO)cc1 39.8 µM [inhibitor, partial curve]
CCCNC(=O)c1n[nH]c2c1CC(C(C)(C)CC)CC2 (centres undefined) 12.6 µM [inhibitor, partial curve]
COc1ccc(Nc2cc3n(c(=O)n2)CCc2cc(OC)c(OC)cc2-3)c(C)c1 35.5 µM [inhibitor, partial curve, poor fit]
Cc1cc(C(=O)N/N=C2\CCCC(C)C2)n[nH]1 (centres undefined) 25.1 µM [inhibitor, partial curve]

5 structures from above, sorted by length of the SMILES, high to low:
Potency, inconclusive:
CC(C)[C@H](CO)N(Cc1cccc(F)c1)c1nc(Nc2cccc(Cl)c2)c2ncn(C(C)C)c2n1 15.8 µM [inhibitor, partial curve]
COc1cc(NC(=O)CSc2nc3[nH]ncc3c(=O)n2-c2ccccc2)cc(OC)c1OC 50.1 µM [inhibitor, partial curve, poor fit]
Cc1nc(CS(=O)(=O)c2ccc(Cl)cc2)sc1C(=O)O 0.794 µM [inhibitor, full curve]
CCCCc1c(C)[nH]c(C(=O)OCC)c1C 4.47 µM [inhibitor, full curve, poor fit]
CCCCC1C(=O)NN(c2ccccc2)C1=O (centres undefined) 7.08 µM [inhibitor, single point]

Following part.

Potency, inactive:
OC1CC2CCC(C1)N2CCCN1c2ccccc2Sc2ccc(Cl)cc21 (centres undefined)
O=C(Cc1ccccc1Cl)Nc1cccc(S(=O)(=O)N2CCCCCC2)c1
COC(=O)CC1c2cc(OC)c(OC)cc2CCN1C(=O)Nc1ccc(C)cc1Cl (centres undefined)
COc1ccc(NC(=O)/C(C#N)=C/C=C/c2ccco2)cc1
O=C(Cc1cc(=O)[nH][nH]1)N/N=C/c1c(F)cccc1Cl
COc1ccc(OCCCSc2ncccn2)cc1
COC(=O)c1n[nH]n(-c2ccccc2)c1=O
Nc1nnc(SCC(=O)Nc2ccccc2C(F)(F)F)s1
CCCc1cc(=O)[nH]c2nnc(SCC)n12
CC1C(=O)CC(c2ccccc2)NC1c1ccccc1 (centres undefined)
Nc1ccccc1Nc1cc(-c2ccccc2)[nH]n1
Cc1ccc(NNC(=O)C(O)(c2cccc(C(F)(F)F)c2)c2cccc(C(F)(F)F)c2)cc1
CCOC(=O)c1cc(C(=O)Nc2sc3c(c2C#N)CCCC3)nn1C

Activity change, negative = inhibition, inconclusive:
CC(NC(=O)CNC(=O)c1sc2ccccc2c1Cl)c1cccnc1 (centres undefined) -4.72% [inhibitor]
